According to the supplement of paper PMC8728848:
Some of the results follow.

Assays:
Experiment in all cases: glycan array binding signal (z-score within array); higher = stronger binding
Settings in all cases: glycan notation: IUPAC condensed, linker removed
GlcNAc(b1-4)GlcNAc = molecular target: GlcNAc(b1-4)GlcNAc
In short: (§1)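 The binding signal is a Z-score computed within each array and averaged over linkers. Arrays of the same protein sequence at different concentrations or buffers were also averaged together. Data originate from 3228 arrays in the Consortium for Functional Glycomics database, kept only where the protein sequence was available.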

[1] = molecular target: GlcNAc(b1-4)GlcNAc(b1-4)GlcNAc
In short: as §1

[2] = molecular target: GlcNAc(b1-4)GlcNAc(b1-4)GlcNAc(b1-4)GlcNAc(b1-4)GlcNAc
In short: as §1

[3] = molecular target: GlcNAc(b1-4)GlcNAc(b1-4)GlcNAc(b1-4)GlcNAc(b1-4)GlcNAc(b1-4)GlcNAc
In short: as §1

[4] = molecular target: GlcNAc(b1-4)[GlcNAc(b1-6)]GalNAc
In short: as §1

[5] = molecular target: GlcNAc(b1-6)Gal(b1-4)GlcNAc
In short: as §1

GlcNAc(b1-6)GalNAc = molecular target: GlcNAc(b1-6)GalNAc
In short: as §1

GlcNAc3Prop(b1-4)GlcNAc = molecular target: GlcNAc3Prop(b1-4)GlcNAc
In short: as §1

[6] = molecular target: GlcNAc6S(b1-3)Gal(b1-4)GlcNAc
In short: as §1

Kdn(a2-3)Gal(b1-3)GalNAc = molecular target: Kdn(a2-3)Gal(b1-3)GalNAc
In short: as §1

Kdn(a2-3)Gal(b1-3)GlcNAc = molecular target: Kdn(a2-3)Gal(b1-3)GlcNAc
In short: as §1

Kdn(a2-3)Gal(b1-4)Glc = molecular target: Kdn(a2-3)Gal(b1-4)Glc
In short: as §1

Kdn(a2-3)Gal(b1-4)GlcNAc = molecular target: Kdn(a2-3)Gal(b1-4)GlcNAc
In short: as §1

[7] = molecular target: Kdn(a2-3)Gal(b1-4)[Fuc(a1-3)]GlcNAc
In short: as §1

Kdn(a2-6)Gal(b1-4)GlcNAc = molecular target: Kdn(a2-6)Gal(b1-4)GlcNAc
In short: as §1

[8] = molecular target: Man(a1-2)Man(a1-2)Man(a1-3)Man
In short: as §1

[9] = molecular target: Man(a1-2)Man(a1-2)Man(a1-6)[Man(a1-3)]Man
In short: as §1

Man(a1-2)Man(a1-3)Man = molecular target: Man(a1-2)Man(a1-3)Man
In short: as §1

[10] = molecular target: Man(a1-2)Man(a1-3)[Man(a1-2)Man(a1-6)]Man
In short: as §1

[11] = molecular target: Man(a1-2)Man(a1-3)[Man(a1-2)Man(a1-6)]Man(a1-6)[Man(a1-2)Man(a1-2)Man(a1-3)]Man
In short: as §1

[12] = molecular target: Man(a1-2)Man(a1-3)[Man(a1-2)Man(a1-6)]Man(a1-6)[Man(a1-2)Man(a1-2)Man(a1-3)]Man(b1-4)GlcNAc(b1-4)GlcNAc
In short: as §1

[13] = molecular target: Man(a1-2)Man(a1-3)[Man(a1-6)]Man(a1-6)[Man(a1-2)Man(a1-3)]Man(b1-4)GlcNAc(b1-4)GlcNAc
In short: as §1

[14] = molecular target: Man(a1-2)Man(a1-6)[Man(a1-3)]Man(a1-6)[Man(a1-2)Man(a1-2)Man(a1-3)]Man
In short: as §1

[15] = molecular target: Man(a1-2)Man(a1-6)[Man(a1-3)]Man(a1-6)[Man(a1-2)Man(a1-2)Man(a1-3)]Man(b1-4)GlcNAc(b1-4)GlcNAc
In short: as §1

Man(a1-3)[Man(a1-6)]Man = molecular target: Man(a1-3)[Man(a1-6)]Man
In short: as §1

[16] = molecular target: Man(a1-3)[Man(a1-6)]Man(a1-6)[Man(a1-2)Man(a1-3)]Man(b1-4)GlcNAc(b1-4)GlcNAc
In short: as §1

[17] = molecular target: Man(a1-3)[Man(a1-6)]Man(a1-6)[Man(a1-3)]Man
In short: as §1

[18] = molecular target: Man(a1-3)[Man(a1-6)]Man(a1-6)[Man(a1-3)]Man(b1-4)GlcNAc(b1-4)GlcNAc
In short: as §1

B1: HHL-2 (Homo sapiens), P07307 (protein)
chain: MAKDFQDIQQLSSEENDHPFHQGEGPGTRRLNPRRGNPFLKGPPPAQPLAQRLCSMVCFSLLALSFNILLLVVICVTGSQSEGHRGAQLQAELRSLKEAFSNFSSSTLTEVQAISTHGGSVGDKITSLGAKLEKQQQDLKADHDALLFHLKHFPVDLRFVACQMELLHSNGSQRTCCPVNWVEHQGSCYWFSHSGKAWAEAEKYCQLENAHLVVINSWEEQKFIVQHTNPFNTWIGLTDSDGSWKWVDGTDYRHNYKNWAVTQPDNWHGHELGGSEDCVEVQPDGRWNDDFCLQVYRWVCEKRRNATGEVA
glycan array binding signal (z-score) (GlcNAc(b1-4)GlcNAc): -0.562 | glycan array binding signal (z-score) [1]: 2.8 | glycan array binding signal (z-score) [2]: 0.999 | glycan array binding signal (z-score) [3]: -0.278 | glycan array binding signal (z-score) [4]: -0.749 | glycan array binding signal (z-score) [5]: -0.546 | glycan array binding signal (z-score) (GlcNAc(b1-6)GalNAc): -0.738 | glycan array binding signal (z-score) (GlcNAc3Prop(b1-4)GlcNAc): -0.629 | glycan array binding signal (z-score) [6]: -0.85 | glycan array binding signal (z-score) (Kdn(a2-3)Gal(b1-3)GalNAc): -0.657 | glycan array binding signal (z-score) (Kdn(a2-3)Gal(b1-3)GlcNAc): -0.566 | glycan array binding signal (z-score) (Kdn(a2-3)Gal(b1-4)Glc): -0.347 | glycan array binding signal (z-score) (Kdn(a2-3)Gal(b1-4)GlcNAc): -0.017 | glycan array binding signal (z-score) [7]: 0.01 | glycan array binding signal (z-score) (Kdn(a2-6)Gal(b1-4)GlcNAc): -0.456 | glycan array binding signal (z-score) [8]: -0.322 | glycan array binding signal (z-score) [9]: 1.36 | glycan array binding signal (z-score) (Man(a1-2)Man(a1-3)Man): -0.028 | glycan array binding signal (z-score) [10]: 0.284 | glycan array binding signal (z-score) [11]: -0.391 | glycan array binding signal (z-score) [12]: -0.086 | glycan array binding signal (z-score) [13]: -0.894 | glycan array binding signal (z-score) [14]: 1.48 | glycan array binding signal (z-score) [15]: -0.894 | glycan array binding signal (z-score) (Man(a1-3)[Man(a1-6)]Man): 0.051 | glycan array binding signal (z-score) [16]: 0.822 | glycan array binding signal (z-score) [17]: -0.308 | glycan array binding signal (z-score) [18]: 0.756
